# Results are given in words; binding and its absence hold for the method and conditions named. In cells and extracts the contact can be indirect. Some results given as binding are weak or reduced against the parent protein; the word gives no strength.
# Sequences of proteins named here, by UniProt entry; tags and fusion partners are left off. A change or cut given only in a name is not applied to a line headed by its entry. A line that says so, or that is headed by a name, gives the form on record, which may keep a tag or linker.
# sphingosine kinase-1 (SPHK1), endogenous in HeyA8 cells (Q9NYA1-2, form named): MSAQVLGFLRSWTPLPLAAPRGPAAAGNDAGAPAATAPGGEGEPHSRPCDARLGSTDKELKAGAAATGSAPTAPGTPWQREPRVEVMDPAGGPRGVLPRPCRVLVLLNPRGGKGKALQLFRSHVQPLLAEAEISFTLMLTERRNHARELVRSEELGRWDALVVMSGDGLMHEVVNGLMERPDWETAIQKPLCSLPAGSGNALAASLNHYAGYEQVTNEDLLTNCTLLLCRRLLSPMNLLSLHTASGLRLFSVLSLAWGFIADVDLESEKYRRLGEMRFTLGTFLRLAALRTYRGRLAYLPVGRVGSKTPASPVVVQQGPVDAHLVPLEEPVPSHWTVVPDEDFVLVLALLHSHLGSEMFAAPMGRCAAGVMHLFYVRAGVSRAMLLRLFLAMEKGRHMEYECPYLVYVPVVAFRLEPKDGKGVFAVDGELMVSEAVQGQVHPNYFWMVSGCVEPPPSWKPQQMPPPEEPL
# UniProt Q99816: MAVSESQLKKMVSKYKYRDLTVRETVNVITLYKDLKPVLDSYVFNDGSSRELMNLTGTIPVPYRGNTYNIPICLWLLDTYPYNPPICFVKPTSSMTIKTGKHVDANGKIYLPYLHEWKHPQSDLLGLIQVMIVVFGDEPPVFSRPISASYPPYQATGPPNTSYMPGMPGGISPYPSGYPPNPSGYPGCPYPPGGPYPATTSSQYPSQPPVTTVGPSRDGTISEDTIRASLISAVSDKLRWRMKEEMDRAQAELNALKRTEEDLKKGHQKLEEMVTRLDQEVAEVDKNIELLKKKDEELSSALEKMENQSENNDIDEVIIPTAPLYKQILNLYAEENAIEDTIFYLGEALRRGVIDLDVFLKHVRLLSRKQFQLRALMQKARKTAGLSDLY
# What was measured:
# [1] = molecular target: GFP-tagged SPHK1, wild type (UniProt Q9NYA1); assay: co-IP; GFP-Trap beads on cells expressing GFP-tagged SPHK1 or TSG101-GFP; partners detected by immunoblotting; the crosslinker DTSSP stabilized the interaction
# [2] = molecular target: GFP-tagged SPHK1, wild type (UniProt Q9NYA1); assay: pull-down; GFP-Trap pulldown from HeyA8 cells transfected with wild-type or PTAP-mutated SPHK1 plasmids; TSG101 detected by western blotting
# [3] = molecular target: tumor susceptibility gene 101 protein (TSG101), endogenous in HeyA8 cells (human (endogenous in HeyA8)) (UniProt Q99816); assay: proximity ligation; in situ PLA in HeyA8 cells with target-specific antibodies against SPHK1 and TSG101; red PLA dots counted
# GFP-tagged TSG101 = GFP-tagged TSG101 (UniProt Q99816); assay: co-IP; GFP-Trap beads on cells expressing GFP-tagged SPHK1 or TSG101-GFP; partners detected by immunoblotting; the crosslinker DTSSP stabilized the interaction
binding [1],binding [2],binding [3],binding (GFP-tagged TSG101),Substance
binds,binds,–,–,"tumor susceptibility gene 101 protein (TSG101), endogenous in HeyA8 cells (from UniProt Q99816 1-390)"
–,–,binds,binds,"sphingosine kinase-1 (SPHK1), endogenous in HeyA8 cells (from UniProt Q9NYA1-2 1-470) (enzyme)"

# Source: article PMC9108620
